PubChem BioAssay AID1259261 | Sanger Institute – 2017

Purpose: 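siRNA screen across the kinome for kinases that are essential and partners synergising with drugs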 (primary screen)
Cells: HCC2998 human colorectal cancer cells
Knock-down reagent: siRNA pool against human genes
Challenge: anchor drugs BYL719 1 µM, cetuximab 5 µg/ml or trametinib 10 nM, each compared with DMSO vehicle
Measurement: 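Viability as fraction of non-targeting control plus robust z-score without drug; synergy scores compare knock-down plus drug against each alone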
Direction: viability z-score, knock-down alone: higher = more viable cells than controls; viability fraction, knock-down alone: higher = more viable cells; synergy score with BYL719: higher = stronger combined killing with BYL719
Hit rule: 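a knock-down is called essential if its robust z-score without drug is under -3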
Meaning of the calls: active = essential; inactive = no change
Here is one part, drawn at random, of 794 reagents. 10 of all reagents (1.3%) count as active. 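Calls reflect knock-down alone without drug; synergy scores with BYL719, cetuximab or trametinib do not affect calls.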 Unmarked entries are inactive. Viability is capped at 1. Not all columns of the deposit are shown. Not stated in the record: the amount of reagent, the time to read-out.

| target | viability z-score, knock-down alone | viability fraction, knock-down alone | synergy score with BYL719 |
| --- | --- | --- | --- |
| WIPF1 (WAS/WASL interacting protein family member 1) | -2.29 | 0.562 | -0.0576 |
| EPHB3 (EPH receptor B3) | -0.379 | 0.801 | 0.0867 |
| UCK2 (uridine-cytidine kinase 2) | 1.05 | 0.981 | 0.0359 |
| CDKL3 (cyclin dependent kinase like 3) | 0.408 | 0.9 | -0.114 |
| GRK6 (G protein-coupled receptor kinase 6) | 1.21 | 1 | -0.061 |
| TAOK1 (TAO kinase 1) | -0.879 | 0.739 | -0.0515 |
| PRKCB (protein kinase C beta) | -1.16 | 0.703 | -0.0756 |
| PANK4 (pantothenate kinase 4 (inactive)) | -1.05 | 0.717 | 0.0749 |
| MSR1 (macrophage scavenger receptor 1) | -1.03 | 0.719 | -0.0522 |
| THNSL1 (threonine synthase like 1) | 0.128 | 0.865 | 0.0382 |
| FES (FES proto-oncogene, tyrosine kinase) | -0.163 | 0.828 | -0.0632 |
| MAP3K20 (mitogen-activated protein kinase kinase kinase 20) | -0.23 | 0.82 | -0.0626 |
| COQ8B (coenzyme Q8B) | -0.687 | 0.763 | -0.0465 |
| BRDT (bromodomain testis associated) | -1.11 | 0.71 | -0.156 |
| BRSK1 (BR serine/threonine kinase 1) | -0.055 | 0.842 | -0.0656 |
| TTBK1 (tau tubulin kinase 1) | -1.26 | 0.691 | -0.0858 |
| UCKL1 (uridine-cytidine kinase 1 like 1) | 0.741 | 0.942 | -0.0243 |
| RELA (RELA proto-oncogene, NF-kB subunit) | -0.236 | 0.819 | -0.0363 |
| COMMD3 (COMM domain containing 3) | 1.21 | 1 | -0.0519 |
| ATR (ATR checkpoint kinase) | -1.1 | 0.711 | -0.115 |
| CHEK1 (checkpoint kinase 1) | -2.65 | 0.517 | -0.06 |
| CASP8 (caspase 8) | 0.147 | 0.867 | -0.0626 |
| PIP4K2B (phosphatidylinositol-5-phosphate 4-kinase type 2 beta) | 0.297 | 0.886 | -0.0273 |
| ALPK3 (alpha kinase 3) | 0.616 | 0.926 | -0.12 |
| NLK (nemo like kinase) | 0.736 | 0.941 | -0.0748 |
| FGFR1 (fibroblast growth factor receptor 1) | 1.21 | 1 | -0.109 |
| TYK2 (tyrosine kinase 2) | -1.33 | 0.682 | -0.0687 |
| CSK (C-terminal Src kinase) | 1.21 | 1 | -0.0384 |
| RBKS (ribokinase) | 0.353 | 0.893 | -0.00495 |
| MAP3K4 (mitogen-activated protein kinase kinase kinase 4) | -0.566 | 0.778 | -0.096 |
| GTF2H1 (general transcription factor IIH subunit 1) | -1.85 | 0.617 | 0.00486 |
| PXK (PX domain containing serine/threonine kinase like) | 0.0428 | 0.854 | 0.00465 |
| PHKA2 (phosphorylase kinase regulatory subunit alpha 2) | 0.61 | 0.925 | -0.106 |
| PIK3R3 (phosphoinositide-3-kinase regulatory subunit 3) | 1.01 | 0.976 | -0.029 |
| EEF2K (eukaryotic elongation factor 2 kinase) | -0.754 | 0.754 | -0.0907 |
| STRADB (STE20 related adaptor beta) | -0.27 | 0.815 | -0.0968 |
| CLK2 (CDC like kinase 2) | -0.00445 | 0.848 | -0.15 |
| CTCF (CCCTC-binding factor) | -0.487 | 0.788 | -0.0408 |
| CSNK1G1 (casein kinase 1 gamma 1) | -1.87 | 0.615 | -0.144 |
| MAPK9 (mitogen-activated protein kinase 9) | 1.21 | 1 | -0.0686 |
| MAPK12 (mitogen-activated protein kinase 12) | 1.21 | 1 | -0.109 |
| PRKCI (protein kinase C iota) | -0.793 | 0.749 | -0.177 |
| NUP62 (nucleoporin 62) | -1.38 | 0.676 | -0.0325 |
| SRGAP3 (SLIT-ROBO Rho GTPase activating protein 3) | 0.318 | 0.889 | -0.139 |
| RIPK3 (receptor interacting serine/threonine kinase 3) | 0.147 | 0.867 | -0.115 |
| AKT1 (AKT serine/threonine kinase 1) | 0.22 | 0.876 | -0.0313 |
| PFKP (phosphofructokinase, platelet) | 0.37 | 0.895 | 0.142 |
| NTRK2 (neurotrophic receptor tyrosine kinase 2) | -0.146 | 0.831 | -0.0829 |
| STK17B (serine/threonine kinase 17b) | 0.000565 | 0.849 | 0.0035 |
| MAP3K11 (mitogen-activated protein kinase kinase kinase 11) | 0.195 | 0.873 | 0.00449 |
| RIOK1 (RIO kinase 1) | -0.132 | 0.832 | -0.131 |
| CDK15 (cyclin dependent kinase 15) | 0.986 | 0.972 | -0.105 |
| CAMK1D (calcium/calmodulin dependent protein kinase ID) | 1.21 | 1 | 0.0622 |
| DGKI (diacylglycerol kinase iota) | 1.21 | 1 | -0.0459 |
| MAPK4 (mitogen-activated protein kinase 4) | 0.384 | 0.897 | 0.0843 |
| STK39 (serine/threonine kinase 39) | -0.921 | 0.733 | -0.0826 |
| NF1 (neurofibromin 1) | 1.21 | 1 | -0.0502 |
| TRIB3 (tribbles pseudokinase 3) | -0.875 | 0.739 | 0.00274 |
| PKIA (cAMP-dependent protein kinase inhibitor alpha) | -0.279 | 0.814 | -0.1 |
| DGKD (diacylglycerol kinase delta) | 0.508 | 0.913 | 0.00159 |
| ERBB4 (erb-b2 receptor tyrosine kinase 4) | 0.145 | 0.867 | 0.0776 |
| PIK3R5 (phosphoinositide-3-kinase regulatory subunit 5) | 0.0546 | 0.856 | -0.0008 |
| PFKFB4 (6-phosphofructo-2-kinase/fructose-2,6-biphosphatase 4) | -0.652 | 0.767 | -0.0948 |

Ordered by “viability fraction, knock-down alone” (lowest first): some entries from above
| target | viability z-score, knock-down alone | viability fraction, knock-down alone | synergy score with BYL719 |
| --- | --- | --- | --- |
| TTBK1 (tau tubulin kinase 1) | -1.26 | 0.691 | -0.0858 |
| BRDT (bromodomain testis associated) | -1.11 | 0.71 | -0.156 |
| BRSK1 (BR serine/threonine kinase 1) | -0.055 | 0.842 | -0.0656 |
